The target of this assay is Annexin A2 (human (endogenous in Ishikawa and HEC-1A)) (UniProt P07355). Kind of assay: co-IP; RIPA lysates of Ishikawa and HEC-1A (and CaoV3) cells; precipitated with mouse anti-ANXA2 monoclonal or goat anti-HE4 polyclonal antibody (3 h, 4 °C) and protein A/G PLUS-Agarose overnight at 4 °C; blotted with anti-HE4 and anti-ANXA2; mouse or goat IgG as negative control; repeated three times.

Protein sequences, listed by entry. Tags and fused reporters are not part of them.
UniProt P07355: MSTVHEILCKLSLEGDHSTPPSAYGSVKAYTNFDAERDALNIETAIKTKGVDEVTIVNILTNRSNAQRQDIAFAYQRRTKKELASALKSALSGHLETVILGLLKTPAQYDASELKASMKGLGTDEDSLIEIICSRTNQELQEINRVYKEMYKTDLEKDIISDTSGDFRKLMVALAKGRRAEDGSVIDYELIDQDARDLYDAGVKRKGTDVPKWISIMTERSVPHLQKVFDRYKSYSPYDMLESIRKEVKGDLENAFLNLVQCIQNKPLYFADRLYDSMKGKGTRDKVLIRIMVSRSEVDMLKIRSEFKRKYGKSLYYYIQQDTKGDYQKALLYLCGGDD

No constants are given. Whether binding was seen depends on the method and setting. Binding seen in cells or lysates may run through a third protein. Some binding calls cover weakened binding; strength is not graded here.

B1: Human epididymis protein 4 (protein, UniProt Q14508 31-124)
chain: EKTGVCPELQADQNCTQECVSDSECADNLKCCSAGCATFCSLPNDKEGSCPQVNINFPQLGLCRDQCQVDSQCPGQMKCCRNGCGKVSCVTPNF
On to B1, for which the binding result is given as “binds”.

These data come from publication PMC4567805.
